# Source: PubChem BioAssay AID504467 (National Center for Advancing Translational Sciences (NCATS), 2011)
# Out of some 330,000 compounds screened, about 7,700 (2.3%) were called active. The shares of active, inactive and inconclusive entries below differ from those in the screen. Calls come from the whole dose curve; as a rule, active = well fitted inhibition curve with a large enough effect; inconclusive = small, poorly fitted or top-dose-only effect, or effect the other way; inactive = flat fitted curve, though single readings scatter. Potencies beside an inconclusive call are fits to weak or partial responses and may not hold up.
# Test: qHTS screen for small molecules that inhibit ELG1-dependent DNA repair in human embryonic kidney (HEK293T) cells expressing luciferase-tagged ELG1; note: nearly all actives have a fitted effect of over 55% in size
# Conditions: HEK293T ELG1-luciferase reporter, luminescence, 16 h, DNA damage induced by 5-fluorouridine; activity change, negative = inhibition: at 46.1 µM (top of the series)
# Outline: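 5-Fluorouridine DNA damage + compound/DMSO, 2,000 cells/well, 16 h, 37 °C/5% CO2. ONE-Glo, 30 min RT, luminescence. Readout = decrease in reporter signal.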
# % is set by controls: 0 for no effect and ±100 for the full control effect; potency is the fitted concentration of half-maximal effect.
Compound,"activity change, negative = inhibition",Potency
CC1CCN(Cc2nnnn2CCCC(=O)N(C)C(C)c2ccccn2)CC1 (stereo unspecified),inactive: 8.63%,
C=CCNC(=S)Nc1cc(C)ccn1,inactive: -18.9%,
COc1cccc(N2CCN(S(=O)(=O)c3ccc(CN4C(=O)c5cccnc5C4=O)cc3)CC2)c1,,"inconclusive: 29.1 µM [activator, partial curve, poor fit]"
O=C(NCCCC(=O)N1CCCCC1)c1ccc(Cl)cc1,,"inconclusive: 16.4 µM [activator, single point]"
CCOC(=O)Cc1csc(NC(=O)c2cnc3sc(C)cn3c2=O)n1,,"inconclusive: 3.66 µM [activator, single point]"
CSc1ncccc1C(=O)OCC(=O)NC1CCC(C)CC1 (stereo unspecified),,"inconclusive: 11.2 µM [activator, partial curve]"
CCn1c(=O)c2cc(C(=O)NC(C)C)sc2c2ccccc21,,"inconclusive: 10.3 µM [activator, partial curve]"
COc1ccccc1NC(=O)CS(=O)(=O)c1cn(CC(=O)N2CCOCC2)c2ccccc12,inactive: 5.4%,
CCCn1nc(C(=O)NNC(=O)CCCOc2ccc(OC)cc2)c2ccccc2c1=O,,"inconclusive: 20.6 µM [inhibitor, single point]"
O=C(CNC(=O)c1ccco1)Nc1ccncc1,inactive: 27.2%,
Cc1cccc(C(=O)Nc2ccc(O)cc2)c1,,"inconclusive: 18.4 µM [activator, partial curve]"
Cn1ncc(Br)c1C(=O)NC(=S)N1CCN(c2ccccn2)CC1,inactive: 4.39%,
CCCCn1c(N)c(N(CCOC)C(=O)C2CC(=O)N(c3ccc(CC)cc3)C2)c(=O)[nH]c1=O (stereo unspecified),inactive: 8.99%,
Cc1nc(CCNC(=O)c2cc(COc3ccc(F)cc3Cl)on2)sc1C,,"inconclusive: 4.61 µM [inhibitor, single point]"
CC1CCN(c2ccc3c(c2)S(=O)(=O)c2cccc(C(=O)O)c2C3=O)CC1,,"inconclusive: 11.6 µM [activator, partial curve]"
COc1ccc2[nH]cc(CCNC(=O)CS(=O)(=O)Cc3ccccc3)c2c1,inactive: -1.23%,
OC1C(O)C(O)C(O)C(O)C1O (stereo unspecified),,inactive
CC1=NN(C(N)=S)C(=O)C1N=Nc1cccc(C(=O)O)c1 (stereo unspecified),inactive: -16.3%,
NCCOc1ccccc1-c1ccccc1,inactive: -0.365%,
Cc1cc(NC(=O)CCC(=O)NNC(=O)c2ccc(C(C)(C)C)cc2)no1,,"inconclusive: 20.6 µM [activator, partial curve]"
CC(C)(C)C1CCC2(CC1)C(Nc1cccc(C(F)(F)F)c1)=NC(=S)N2CC#N (stereo unspecified),inactive: 2.09%,
COc1cccc(CNC(=O)c2nnn(CC(=O)Nc3ccc(Br)cc3)c2N)c1,,"inconclusive: 32.6 µM [activator, partial curve, poor fit]"
COC(=O)c1ccccc1S(=O)(=O)N1CCCC(c2nc3c(nnn3Cc3ccc(C)cc3)c(=O)[nH]2)C1 (stereo unspecified),,"inconclusive: 23.1 µM [inhibitor, single point]"
O=C(Nc1ccc(N2CCOCC2)cc1)c1nc2ccccc2s1,,"inconclusive: 0.92 µM [activator, partial curve]"

Compound,"activity change, negative = inhibition",Potency
COc1cc(/C=C2/C(=N)N3C(=NC2=O)SN=C3S(C)(=O)=O)ccc1OC(=O)c1ccco1,,"inconclusive: 11.6 µM [activator, partial curve]"
CC(C)CCC(O)(CCC(C)C)C(=O)NN1CCCCC1,inactive: 6.68%,
O=C(CC(NC(=O)c1ccccc1)c1ccccc1)NCc1ccccc1 (stereo unspecified),,"inconclusive: 20.6 µM [activator, partial curve, poor fit]"
O=C(Cn1nnc(-c2ccc(F)cc2)n1)Nc1cccc(S(=O)(=O)N2CCCC2)c1,,"inconclusive: 35.5 µM [inhibitor, single point]"
CC(NC=O)c1nc2ccccc2n1CCc1ccccc1 (stereo unspecified),inactive: -7.47%,
COc1ccc2c(c1)c(=O)oc1cc(OCC(=O)NCC3CCC(C(=O)O)CC3)ccc12 (stereo unspecified),inactive: -0.904%,
Nc1ccc(Cl)c(S(=O)(=O)Nc2ccc(Cl)cc2)c1,inactive: 0%,
c1ccc(-c2csc(NC3=NCCCCC3)n2)cc1,,"inconclusive: 20.6 µM [activator, partial curve]"
C/C(CCC(C)C)=N\NC(=S)Nc1cc(S(=O)(=O)N2CCOCC2)ccc1N1CCOCC1,,"inconclusive: 25.9 µM [inhibitor, partial curve, poor fit]"
COc1ccccc1N(CC(O)COc1ccc(C)cc1)S(=O)(=O)c1ccccc1 (stereo unspecified),,"inconclusive: 18.4 µM [inhibitor, partial curve, poor fit]"
O=C(NC1CCCCC1)c1cc(-c2ccc(O)cc2)on1,,"inconclusive: 18.3 µM [activator, partial curve]"
CCN(c1ccc(OC)cc1)S(=O)(=O)N1CCCC(C(=O)NCc2ccccc2Br)C1 (stereo unspecified),,"inconclusive: 25.9 µM [inhibitor, partial curve, poor fit]"
CC1Cc2ccccc2N1C(=O)CCS(=O)(=O)c1cccs1 (stereo unspecified),,"inconclusive: 29.1 µM [activator, partial curve, poor fit]"
O=C(c1ccc(S(=O)(=O)NCc2ccco2)cc1)N1CCCC1,inactive: 12.5%,
COc1c(OC(C)=O)ccc(/C=N\NC(=O)c2ccc(Br)cc2)c1[N+](=O)[O-],,"inconclusive: 32.6 µM [inhibitor, partial curve, poor fit]"
COc1ccc(COc2cc(-c3cccc(OC)c3)nc3ccc(NC(=O)c4ccc(OC)cc4)cc23)cc1,,active: 4.11 µM
NC(=O)c1ccccc1OCC(=O)Nc1cccnc1Cl,,"inconclusive: 23.1 µM [activator, partial curve, poor fit]"
COc1ccc(NC(=O)c2cccc(N3C(=O)C4C5C=CC(C6CC56)C4C3=O)c2)c(OC)c1 (stereo unspecified),,"inconclusive: 14.6 µM [inhibitor, single point]"
Cc1ncc(CN2CCCC(C(=O)Nc3ccc(-c4ccco4)cc3)C2)n1C (stereo unspecified),inactive: -3%,
CCOc1ccc2[nH]c(=O)c(CN(Cc3ccc(F)cc3)C(=O)N3CCCC3)cc2c1,,"inconclusive: 17.8 µM [inhibitor, single point]"
CCS(=O)(=O)NCCc1cc2ccc(C)cc2[nH]c1=O,inactive: -7.72%,
Cc1[nH]nc2c1C1(CCN(C(=O)OCc3ccccc3)CC1)C(C#N)=C(N)O2,inactive: 1.93%,
C[C@H](CO)N1C[C@H](C)[C@@H](CN(C)S(=O)(=O)c2cn(C)cn2)Oc2c(NC(=O)Nc3ccc4c(c3)OCO4)cccc2C1=O,inactive: 8.37%,
N/C(=N\OC(=O)C1CCCCC1)c1ccncc1,,"inconclusive: 20.6 µM [activator, single point]"

# For convenience, some entries already given:
Compound,"activity change, negative = inhibition",Potency
CCOC(=O)Cc1csc(NC(=O)c2cnc3sc(C)cn3c2=O)n1,,"inconclusive: 3.66 µM [activator, single point]"
CSc1ncccc1C(=O)OCC(=O)NC1CCC(C)CC1 (stereo unspecified),,"inconclusive: 11.2 µM [activator, partial curve]"
CCn1c(=O)c2cc(C(=O)NC(C)C)sc2c2ccccc21,,"inconclusive: 10.3 µM [activator, partial curve]"

# The list goes on:

Compound,"activity change, negative = inhibition",Potency
COc1cc(/C=C/C(=O)OCC(=O)NC(=O)C2COc3ccccc3O2)ccc1OC(F)F (stereo unspecified),inactive: 9.16%,
Cc1ccc(C(C(=O)NC2CCCCC2)N(Cc2cccnc2)C(=O)C2COc3ccccc3O2)o1 (stereo unspecified),,"inconclusive: 23.1 µM [inhibitor, single point]"
Cc1[nH]nc2c1C(c1cccc(O)c1)C1=C(CC(C)(C)CC1=O)N2 (stereo unspecified),inactive: -0.268%,
CCOC(=O)Cn1c(=NC(=O)CSC(C)=O)sc2cc(F)ccc21,,"inconclusive: 18.4 µM [activator, single point]"
COc1ccc(C2=NOC(CN3C(=O)c4ccccc4S3(=O)=O)C2)cc1 (stereo unspecified),,"inconclusive: 6.51 µM [activator, partial curve, poor fit]"
O=C(/C=C/c1ccc(-c2cccc([N+](=O)[O-])c2)o1)N1CCOCC1,,"inconclusive: 18.3 µM [activator, partial curve]"
CN(C(=O)Cn1nc(Cl)ccc1=O)C1CCCN(Cc2ccccc2F)C1 (stereo unspecified),inactive: -4.89%,
CCNC(=O)c1c(NC(=O)c2cc(-c3cc(C)ccc3O)n[nH]2)sc2c1CCCC2,,"inconclusive: 6.51 µM [inhibitor, single point]"
C/C(=N\O)c1sc(-c2ccccc2)nc1C,,"inconclusive: 7.3 µM [activator, partial curve]"
CCC(C)(O)C(=O)N[C@H]1CCCN1C(=O)/C=C/c1ccccc1 (stereo partly specified),,"inconclusive: 32.6 µM [activator, partial curve, poor fit]"
CC1CN(C(=O)CCC(=O)NCc2ccccc2)c2cc(Cl)ccc2O1 (stereo unspecified),inactive: 18.4%,
CN(C)S(=O)(=O)c1ccc(C(=O)Nc2ccc(S(=O)(=O)NC3=NCCCCC3)cc2)cc1,inactive: -2.25%,
O=C(NCCN1CCOCC1)c1cc(-c2ccco2)on1,,"inconclusive: 29.1 µM [activator, single point]"
Cc1nc(CCNC(=O)c2ccccc2)cs1,,"inconclusive: 20.6 µM [activator, partial curve]"
COc1cc(NC(=O)c2ccccc2)c(C)cc1NC(=O)CC(CC(=O)O)c1ccccc1 (stereo unspecified),inactive: 25.7%,
C=CCNC(=O)C1CC(=O)N(c2ccc(OCC(=O)Nc3cccc(OC)c3)cc2)C1 (stereo unspecified),,"inconclusive: 13 µM [activator, partial curve]"
O=C(O)c1cccc(Oc2ncnc3sc4c(c23)CCCC4)c1,inactive: -9.45%,
Cc1nc2sccn2c(=O)c1S(=O)(=O)Nc1ccc(N2CCN(C(=O)C(C)C)CC2)cc1,inactive: 1.84%,
CCN(CC)CCn1c(SCC(=O)Nc2ccc3c(c2)CCC3)nc2ccccc2c1=O,,"inconclusive: 11.6 µM [activator, partial curve]"
O=C(/C=C/c1cccs1)NC(=S)Nc1ccccc1,,"inconclusive: 16.4 µM [activator, partial curve, poor fit]"
Cn1cc(-c2nnnn2-c2cccc(C(F)(F)F)c2)c(C(F)(F)F)n1,inactive: 2.38%,
C=CCc1ccc(OCC(O)COCC)c(OC)c1 (stereo unspecified),,"inconclusive: 20.6 µM [activator, partial curve]"
COc1ccnc(NCc2ccc(Cl)cc2)c1C#N,,"inconclusive: 0.517 µM [activator, full curve, poor fit]"

# Some of the entries so far, with bars between the fields.
Compound | activity change, negative = inhibition | Potency
COC(=O)c1ccccc1S(=O)(=O)N1CCCC(c2nc3c(nnn3Cc3ccc(C)cc3)c(=O)[nH]2)C1 (stereo unspecified) |  | inconclusive: 23.1 µM [inhibitor, single point]
O=C(Nc1ccc(N2CCOCC2)cc1)c1nc2ccccc2s1 |  | inconclusive: 0.92 µM [activator, partial curve]
